Assay results taken from patent US20240033737A1, “DEVICES AND METHODS FOR CONTINUOUS DIELECTROPHORESIS CELL SORTING TO ISOLATE DIFFERENT POPULATIONS OF CELLS, AND APPLICATIONS THEREOF” (The Regents of the University of California, priority 2022, published 2024).

System: D54 cells
Experiment: Membrane capacitance and cell size after buffer incubation
Assay type: cell-based
Details: 6 hours

Compound: C[C@@H](N)[C@H]1CC[C@H](C(=O)Nc2ccncc2)CC1 [ROCKi, Y27632]
- membrane capacitance (1 μM ROCKi in DEP buffer, vs control cells in media for 0 hours): decreased membrane capacitance
- cell size (5 μM ROCKi in DEP buffer): did not change
- membrane capacitance (5 μM ROCKi in DEP buffer): did not change
